Results from patent US20220073935A1.
No constants are given. Whether binding was seen depends on the method and setting. Some results given as binding are weak or reduced against the parent protein; the word gives no strength.

Chains of the proteins cited; added tags and fusions are not shown. Lines headed by an entry give the natural chain unless they say otherwise; changes in a name come on top.
UniProt Q01094: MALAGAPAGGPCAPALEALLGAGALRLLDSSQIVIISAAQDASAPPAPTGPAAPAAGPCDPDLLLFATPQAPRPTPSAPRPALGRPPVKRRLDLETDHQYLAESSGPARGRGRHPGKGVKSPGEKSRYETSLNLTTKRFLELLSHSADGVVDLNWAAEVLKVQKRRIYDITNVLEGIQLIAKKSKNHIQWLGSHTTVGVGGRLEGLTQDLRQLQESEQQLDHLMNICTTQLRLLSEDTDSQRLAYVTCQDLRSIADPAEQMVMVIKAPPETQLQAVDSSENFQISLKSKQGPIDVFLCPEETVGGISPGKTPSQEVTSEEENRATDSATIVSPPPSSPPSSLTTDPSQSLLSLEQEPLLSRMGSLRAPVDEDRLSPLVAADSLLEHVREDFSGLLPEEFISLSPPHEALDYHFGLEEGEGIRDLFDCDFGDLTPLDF
UniProt Q14186: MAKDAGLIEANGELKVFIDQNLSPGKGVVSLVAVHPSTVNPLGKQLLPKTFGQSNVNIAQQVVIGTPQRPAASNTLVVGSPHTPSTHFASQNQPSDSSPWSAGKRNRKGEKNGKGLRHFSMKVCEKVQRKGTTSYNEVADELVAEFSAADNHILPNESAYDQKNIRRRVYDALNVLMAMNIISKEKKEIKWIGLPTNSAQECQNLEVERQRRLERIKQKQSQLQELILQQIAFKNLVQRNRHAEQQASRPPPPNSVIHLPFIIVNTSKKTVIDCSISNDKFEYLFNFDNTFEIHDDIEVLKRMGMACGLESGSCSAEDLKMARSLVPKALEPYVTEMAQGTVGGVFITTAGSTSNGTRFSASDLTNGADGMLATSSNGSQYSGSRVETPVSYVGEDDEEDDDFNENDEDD

Experiments:
[1] = target: T1, E2F1-LB, Dp-1 (E2F1 fragment with C-terminal Large BiT, co-expressed with Dp-1 fragment carrying Large BiT) (human) (UniProt Q01094+Q14186); assay: NanoBiT split-luciferase complementation, transiently transfected HEK293 cells
[2] = target: T2, E2F1-Dp-1-LB (E2F1 linked to Dp-1 through GGSG, Large BiT at the C-terminus; stable cell line #11) (human) (UniProt Q01094+Q14186); assay: NanoBiT split-luciferase complementation, stable cell line #11 with CDK4/CDK6, Cyclin D1 and p16
[3] = target: T2, E2F1-Dp-1-LB (E2F1 linked to Dp-1 through GGSG, Large BiT at the C-terminus; stable cell line #11) (human); assay: NanoBiT split-luciferase complementation, HEK293 CDK DKO clones stably expressing E2F1-Dp-1/LB
[4] = target: T1, E2F1-LB, Dp-1 (E2F1 fragment with C-terminal Large BiT, co-expressed with Dp-1 fragment carrying Large BiT) (human); assay: NanoBiT split-luciferase complementation, HEK293 cells with CDK4 or CDK6 treated with a CDK inhibitor

Measured: binding

B1: SB-Rb (Small BiT linked to the N-terminus of an Rb fragment) (protein)
chain: MVTGYRLFEEILGSSGGGGSGGGGSSGGAQGNSYASTRPPTLSPIPHIPRSPYKFPSSPLRIPGGNIYISPLKSPYKISEGLPTPTKMTPRSRILVSIGESFGTSEKFQKINQMVCNSDRVLKRSAEGSNPPKPLKKLRFDIEGSDEADGSKHLPGESKFQQKLAEMTSTRTRMQKQKMNDSMDTSNKEEK
binds: [1] | [2] | [3] | [4]
